Measured values: US8563500B2, “Methods and compounds for treating diseases caused by reactive oxygen species” (Deutsches Krebsforschungszentrum Stiftung des Offentlichen …, priority 2007, dated 2013)
Some entries share one result that the patent states for a list of compounds.

Assays:
[1] = tested on: neutrophils; assay: PMA-induced NADPH oxidase dependent oxidative burst in neutrophils; format: cell-based, human; settings: PMA 10 ng/ml, 100 μM DPI or 600 μM apocynin
[2] = tested on: Jurkat J16-145 cells; assay: Activation-induced (PMA or anti-CD3) ROS generation, DCFDA oxidation by FACS; format: cell-based, human; settings: 100 μM DPI or 600 μM apocynin

COc1cc(C(C)=O)ccc1O [apocynin]
inhibition of the oxidative burst [1]: up to 91%
blockage of the PMA-induced oxidative signal in Jurkat cells [2]: less than 60%
